In ChEMBL document CHEMBL3044836, “Synthesis, antimicrobial and cytotoxic activities of novel 4-trifluoromethyl-(1,2,3)-thiadiazolo-5-carboxylic acid hydrazide Schiffs bases” (Med Chem Res, 2013) one finds IC50 data, which are given here for 1 compound.

≈ marks a conversion by molar mass, not a printed value.

This test has as its system MDA-MB-231. As to the kind of experiment: Cytotoxicity against Homo sapiens (human) MDA-MB-231 cells assessed as cell viability after 48 hr by MTT assay. Format: functional, cell-based. The note with it: MDA-MB-231, 48 h. A general note: Tetrazolium dyes change colour on reduction, which living cells bring about.

As to `COc1cccc2c1C(=O)c1c(O)c3c(c(O)c1C2=O)C[C@@](O)(C(=O)CO)C[C@@H]3O[C@H]1C[C@H](N)[C@H](O)[C@H](C)O1` [DOXORUBICIN], the IC50 (usually the concentration needed to halve the response being measured) was found to be 1.81 µg/mL (≈ 3.33 µM).
